Experimental findings from the supplement of paper PMC10735217 are described below.

Molecules are shown by their SMILES. Structures can show the parent of a compound that is named as a salt. The list shows a part of the results. Repeats in this data set agree poorly, so a single value says little.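 The human kidney-derived cells carry a stably integrated construct of eight TEAD-binding elements driving luciferase, read by luminescence in a drug-repurposing library screen. A compound counts as a hit when its signal is more than five robust Z scores above the plate mean.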

For this experiment, the system named is HEK293A TEAD-LUC reporter. The experiment in a line: TEAD-luciferase reporter activity (YAP activation), robust Z score vs plate; higher = stronger YAP/TEAD activation. As to conditions: 24 h. (In general: Reporter assays use an easily measured gene product as a stand-in for the process of interest.)

With `NC[C@H]1O[C@H](O[C@H]2[C@H](O)[C@@H](O[C@H]3O[C@H](CO)[C@@H](O)[C@H](N)[C@H]3O)[C@H](N)C[C@@H]2N)[C@H](N)C[C@@H]1O` [Tobramycin], the TEAD-luciferase reporter activity is inactive: 2.85 (compound concentration: 200 nM), inactive: -0.52 (compound concentration: 2 uM) and inactive: 0.995 (compound concentration: 10 uM).

As to `COc1ccc(C(C)(C)NC(=O)[C@H]2CC[C@H]3[C@@H]4CC[C@H]5NC(=O)C=C[C@]5(C)[C@H]4CC[C@]23C)cc1` [Lapisteride], the TEAD-luciferase reporter activity is, setting by setting: (compound concentration: 200 nM) inactive: -0.337; (compound concentration: 2 uM) inactive: -0.605; (compound concentration: 10 uM) inactive: 0.533.

As to `O=C1NCc2ccccc2CC12CCCCN2Cc1ccc(F)cc1` (stereo unspecified), the TEAD-luciferase reporter activity is inactive: -2.29 (compound concentration: 200 nM) and inactive: 1.49 (compound concentration: 10 uM).

As to `N#Cc1ccc2ccc(=O)n(CCN3CC[C@H](NCc4cc5c(cn4)OCCO5)[C@H](F)C3)c2c1`, the TEAD-luciferase reporter activity reads like this: (compound concentration: 200 nM) inactive: -0.916; (compound concentration: 2 uM) inactive: 0.877; (compound concentration: 10 uM) inactive: -0.368.

`O=C1C(O)=C([C@H]2CC[C@H](c3ccc(Cl)cc3)CC2)C(=O)c2ccccc21` [atovaquone]: the TEAD-luciferase reporter activity (compound concentration: 200 nM) was inactive: -0.652, the TEAD-luciferase reporter activity (compound concentration: 2 uM) was inactive: 1.26 and the TEAD-luciferase reporter activity (compound concentration: 10 uM) was inactive: -1.05.

Take `CCOC(=O)CCC(C)(c1ccc(OCc2ccc3ccccc3n2)cc1)c1ccc(OCc2ccc3ccccc3n2)cc1`: the TEAD-luciferase reporter activity is, setting by setting: (compound concentration: 200 nM) inactive: -0.806; (compound concentration: 2 uM) inactive: -0.139; (compound concentration: 10 uM) inactive: 0.349.

As to `Oc1c(I)cc(Cl)c2cccnc12` [iodochlorhydroxyquin], the TEAD-luciferase reporter activity is active: 6.31 (compound concentration: 200 nM), inactive: -1.48 (compound concentration: 2 uM) and inactive: 2.36 (compound concentration: 10 uM).

Regarding `O[C@@H]1C[C@H](Oc2nc(N3CCNCC3)nc3ccccc23)C[C@@H]1O`, the TEAD-luciferase reporter activity (compound concentration: 200 nM) was inactive: -0.00948, the TEAD-luciferase reporter activity (compound concentration: 2 uM) is inactive: -0.978 and the TEAD-luciferase reporter activity (compound concentration: 10 uM) is inactive: 0.134.

Turning to `COc1cc(CN2CCN(c3ccc(F)cc3)CC2)cc(OC)c1OC`, the TEAD-luciferase reporter activity (compound concentration: 200 nM) was inactive: -1.21, the TEAD-luciferase reporter activity (compound concentration: 2 uM) was inactive: -0.0291 and the TEAD-luciferase reporter activity (compound concentration: 10 uM) is active: 5.1.

In the case of `COc1ccc2c(c1)CCN=C2Cc1ccc(OC)c(OC)c1`, the TEAD-luciferase reporter activity runs as follows: (compound concentration: 200 nM) inactive: 2.73; (compound concentration: 2 uM) inactive: -1.05; (compound concentration: 10 uM) inactive: 0.359.

For `CN(CCNCc1c(O)c(Br)cc2c1CCC2(C)C)CCNC(=O)c1nc(Cl)c(N)nc1N`, the TEAD-luciferase reporter activity by setting is: (compound concentration: 200 nM) inactive: 1.61; (compound concentration: 2 uM) inactive: -0.922; (compound concentration: 10 uM) inactive: 3.34.

`O=C1c2ccccc2-c2c1c1ccccc1c(=O)n2Cc1ccc2c(c1)OCO2`: the TEAD-luciferase reporter activity runs as follows: (compound concentration: 200 nM) inactive: -0.899; (compound concentration: 2 uM) inactive: -0.939; (compound concentration: 10 uM) inactive: 4.16.

Regarding `Nc1nc(N)c2nc(CNc3ccc(C(=O)N[C@H](CCCNC(=O)c4ccccc4C(=O)O)C(=O)O)cc3)cnc2n1`, the TEAD-luciferase reporter activity (compound concentration: 200 nM) is inactive: -1.67, the TEAD-luciferase reporter activity (compound concentration: 2 uM) was active: 5.44 and the TEAD-luciferase reporter activity (compound concentration: 10 uM) is inactive: 0.454.

Turning to `CN(C)CCCC1(c2ccc(F)cc2)OCc2cc(C#N)ccc21` (stereo unspecified) [citalopram hydrobromide], the TEAD-luciferase reporter activity (compound concentration: 2 uM) is inactive: -2.

In the case of `CN(C)CCCC1(c2ccc(F)cc2)OCc2cc(C#N)ccc21` (stereo unspecified) [Citalopram], the TEAD-luciferase reporter activity reads like this: (compound concentration: 200 nM) inactive: -0.921; (compound concentration: 10 uM) inactive: 4.09.
